We go through two molecules from article PMC3717276, “Optimization and validation of mitochondria-based functional assay as a useful tool to identify BH3-like molecules selectively targeting anti-apoptotic Bcl-2 proteins” (BMC Biotechnology, 2013).

The chains behind the UniProt entries cited, without tags or fusion partners. Where a name states a change or a piece, a line headed by the entry shows the natural chain unless it says otherwise. A line that says so, or that is headed by a name, gives the form on record, which may keep a tag or linker. Residues count along the entry.
UniProt Q07820, residues 171-327: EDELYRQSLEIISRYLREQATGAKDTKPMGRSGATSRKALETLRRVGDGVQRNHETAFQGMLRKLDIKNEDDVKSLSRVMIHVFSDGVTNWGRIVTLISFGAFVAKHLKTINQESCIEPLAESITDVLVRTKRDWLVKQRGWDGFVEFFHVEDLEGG
Human Bcl-xL protein with internal deletion of 45-85 and C-terminal truncation of 212-233, N-terminal 8xHis tagged (Q07817, form named): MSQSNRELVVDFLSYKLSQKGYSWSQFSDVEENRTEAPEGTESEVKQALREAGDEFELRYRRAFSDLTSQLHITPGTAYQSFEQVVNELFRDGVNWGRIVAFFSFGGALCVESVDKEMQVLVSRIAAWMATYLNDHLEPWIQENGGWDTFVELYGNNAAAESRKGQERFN

Experiment [1] addresses Human Mcl-1 protein, residues 171-327, N-terminal 8xHis tag (human) (UniProt Q07820). The experiment can be described thus: fluorescence polarisation; competition: Mcl-1 (20 nM) or Bcl-2 (40 nM) pre-incubated with FAM-Bid (2 nM and 2.5 nM), tested BH3 peptide added, 2-3 h; 100 mM potassium phosphate, pH 7.5, 100 ug/ml bovine gamma globulin, 0.02% sodium azide; Ki calculated from IC50; both purified.

Experiment [2] has the same target. The experiment can be described thus: SPR; competitive solution binding: protein (20 nM) pre-incubated with tested BH3 peptide for at least 30 min, injected over immobilised biotin-Bim BH3 peptide; response at 30 s of dissociation; both purified.
Experiment [3] addresses Human Bcl-xL protein with internal deletion of 45-85 and C-terminal truncation of 212-233, N-terminal 8xHis tagged (human) (UniProt Q07817). The experiment can be described thus: fluorescence polarisation; competition: 30 nM Bcl-xL and 2.5 nM FAM-Bak, tested BH3 peptide added; 50 mM Tris-Bis, pH 7.4, 0.01% bovine gamma globulin; Ki calculated from IC50; both purified.
Experiment [4] has the same target. The experiment can be described thus: SPR; competitive solution binding: protein (20 nM) pre-incubated with tested BH3 peptide for at least 30 min, injected over immobilised biotin-Bim BH3 peptide; response at 30 s of dissociation; both purified.

Results are given in words; binding and its absence hold for the method and conditions named.

B1: Bad BH3 peptide (residues 103-128) (peptide)
peptide: NLWAAQRYGRELRRMSDEFVDSFKKG
For B1, the binding entry in experiment [1] is reported as “no binding (tested: Ki >20000 nM)”; in experiment [2], “no binding (tested: IC50 >30000 nM)”.

B2: Noxa BH3 peptide (residues 18-43) (peptide)
peptide: PAELEVECATQLRRFGDKLNFRQKLL
As for B2, the binding entry in experiment [3] is “no binding (tested: Ki >10000 nM)”; in experiment [4], “no binding (tested: IC50 >30000 nM)”.
